Data source: PubChem BioAssay AID1259254 (NCATS, 2017)
The deposit covers about 59,000 reagents; below is a random part of them. About 1,550 of all reagents (2.6%) were called active. 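G2 share is only a proxy for re-replication; each gene was hit by three separate siRNAs, and active genes were retested.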 Raw values vary from plate to plate and are shown uncorrected. Unmarked entries are inactive. The numbers tell different reagents against one gene apart. The record does not give: the amount of reagent.

Purpose: 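Finding genes that stop cells copying their DNA twice in one cycle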 (primary screen)
Cells: human HCT116 colorectal cancer cells
Reagent: single siRNA against human genes
Timing: 3 days
Measurement: 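Imaged Hoechst DNA stain sorts each cell into a cycle phase by DNA amount; per plate, G2 fraction set to 0% for non-targeting and 100% for GMNN siRNA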
Direction: G2 robust z-score and G2 cells, % of GMNN control: higher = more G2 cells, more excess DNA replication; raw share of cells in G2: higher = larger share of cells with G2 DNA content
Call rule: 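Active siRNAs have a G2 robust z of 5 or more median absolute deviations over the median, which in these data means about 38% or higher of GMNN control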

| target | reagent | G2 robust z-score | G2 cells, % of GMNN control | raw share of cells in G2 (%) |
| --- | --- | --- | --- | --- |
| MRM1 (mitochondrial rRNA methyltransferase 1) | 1 | 1.06 | 10.4 | 8.78 |
| MRM1 (mitochondrial rRNA methyltransferase 1) | 2 | -0.433 | -0.0771 | 4.27 |
| MRM1 (mitochondrial rRNA methyltransferase 1) | 3 | -0.391 | 0.214 | 2.44 |
| RNF126 (ring finger protein 126) | 1 | -1.51 | -7.68 | 1.57 |
| RNF126 (ring finger protein 126) | 2 | 2.28 | 19 | 12 |
| RNF126 (ring finger protein 126) | 3 | 0.172 | 4.18 | 4.47 |
| RPL21P44 (ribosomal protein L21 pseudogene 44) | 1 | 2.44 | 20.1 | 11.1 |
| RPL21P44 (ribosomal protein L21 pseudogene 44) | 2 | -0.227 | 1.37 | 4.06 |
| RPL21P44 (ribosomal protein L21 pseudogene 44) | 3 | -0.558 | -0.959 | 4.39 |
| FUS (FUS DNA/RNA binding protein) | 1 | 8.64 (active) | 63.7 | 28.4 |
| FUS (FUS DNA/RNA binding protein) | 2 | -0.432 | -0.0699 | 5.24 |
| FUS (FUS DNA/RNA binding protein) | 3 | 0.26 | 4.8 | 5.37 |
| NARS1 (asparaginyl-tRNA synthetase 1) | 1 | -0.15 | 1.91 | 3.82 |
| NARS1 (asparaginyl-tRNA synthetase 1) | 2 | 4.54 | 34.9 | 19.3 |
| NARS1 (asparaginyl-tRNA synthetase 1) | 3 | 0.358 | 5.49 | 7.48 |
| CDK3 (cyclin dependent kinase 3) | 1 | -0.105 | 2.23 | 6.34 |
| CDK3 (cyclin dependent kinase 3) | 2 | -0.851 | -3.02 | 4.39 |
| CDK3 (cyclin dependent kinase 3) | 3 | -1.2 | -5.45 | 2.1 |
| LSP1P3 (LSP1 pseudogene 3) | 1 | -0.553 | -0.92 | 2.84 |
| LSP1P3 (LSP1 pseudogene 3) | 2 | -0.784 | -2.55 | 3.09 |
| LSP1P3 (LSP1 pseudogene 3) | 3 | 2.94 | 23.6 | 11.2 |
| SMG7 (SMG7 nonsense mediated mRNA decay factor) | 1 | 1.21 | 11.5 | 10.5 |
| SMG7 (SMG7 nonsense mediated mRNA decay factor) | 2 | -0.956 | -3.76 | 2.38 |
| SMG7 (SMG7 nonsense mediated mRNA decay factor) | 3 | -0.384 | 0.267 | 3.5 |
| DNAAF4 (dynein axonemal assembly factor 4) | 1 | -0.387 | 0.244 | 3.69 |
| DNAAF4 (dynein axonemal assembly factor 4) | 2 | 0.78 | 8.45 | 5.79 |
| DNAAF4 (dynein axonemal assembly factor 4) | 3 | 0.235 | 4.62 | 4.22 |
| SMIM26 (small integral membrane protein 26) | 1 | -0.72 | -2.1 | 3.05 |
| SMIM26 (small integral membrane protein 26) | 2 | -0.229 | 1.36 | 4 |
| SMIM26 (small integral membrane protein 26) | 3 | -0.632 | -1.48 | 4 |
| CCDC198 (coiled-coil domain containing 198) | 1 | -1.03 | -4.28 | 2.88 |
| CCDC198 (coiled-coil domain containing 198) | 2 | -0.785 | -2.56 | 3.08 |
| CCDC198 (coiled-coil domain containing 198) | 3 | -0.19 | 1.63 | 3.66 |
| OTP (orthopedia homeobox) | 1 | 2.71 | 22 | 11.4 |
| OTP (orthopedia homeobox) | 2 | -0.311 | 0.78 | 4.42 |
| OTP (orthopedia homeobox) | 3 | -1.18 | -5.33 | 4.23 |
| RAP1GDS1 (Rap1 GTPase-GDP dissociation stimulator 1) | 1 | 0.348 | 5.42 | 7.28 |
| RAP1GDS1 (Rap1 GTPase-GDP dissociation stimulator 1) | 2 | 1.65 | 14.6 | 9.99 |
| RAP1GDS1 (Rap1 GTPase-GDP dissociation stimulator 1) | 3 | -0.144 | 1.95 | 4.06 |
| ACRV1 (acrosomal vesicle protein 1) | 1 | 1.04 | 10.3 | 7.54 |
| ACRV1 (acrosomal vesicle protein 1) | 2 | 0.64 | 7.47 | 8.8 |
| ACRV1 (acrosomal vesicle protein 1) | 3 | -1.31 | -6.27 | 1.79 |
| ERICH1 (glutamate rich 1) | 1 | 0.965 | 9.76 | 7.1 |
| ERICH1 (glutamate rich 1) | 2 | 2.59 | 21.2 | 10.1 |
| ERICH1 (glutamate rich 1) | 3 | -0.574 | -1.07 | 2.42 |
| ZNF726P1 (zinc finger protein 726 pseudogene 1) | 1 | -0.63 | -1.47 | 3.22 |
| ZNF726P1 (zinc finger protein 726 pseudogene 1) | 2 | 0.0993 | 3.67 | 4.58 |
| ZNF726P1 (zinc finger protein 726 pseudogene 1) | 3 | 1.1 | 10.7 | 6.45 |
| FAM81B (family with sequence similarity 81 member B) | 1 | 0.601 | 7.2 | 6.18 |
| FAM81B (family with sequence similarity 81 member B) | 2 | 0.42 | 5.92 | 4.94 |
| FAM81B (family with sequence similarity 81 member B) | 3 | 0.0357 | 3.22 | 3.78 |
| ATG7 (autophagy related 7) | 1 | 1.05 | 10.3 | 10.6 |
| ATG7 (autophagy related 7) | 2 | 2.11 | 17.8 | 9.61 |
| ATG7 (autophagy related 7) | 3 | 1.43 | 13 | 11.3 |
| SLITRK5 (SLIT and NTRK like family member 5) | 1 | -0.771 | -2.46 | 5.05 |
| SLITRK5 (SLIT and NTRK like family member 5) | 2 | -1.59 | -8.21 | 1.46 |
| SLITRK5 (SLIT and NTRK like family member 5) | 3 | -0.0377 | 2.7 | 4.87 |
| LATS1 (large tumor suppressor kinase 1) | 1 | -1.79 | -9.63 | 2.59 |
| LATS1 (large tumor suppressor kinase 1) | 2 | -0.529 | -0.754 | 4.92 |
| LATS1 (large tumor suppressor kinase 1) | 3 | -0.392 | 0.209 | 3.75 |
| LOC401218 (cyclin Q pseudogene) | 1 | 0.382 | 5.66 | 4.46 |
| LOC401218 (cyclin Q pseudogene) | 2 | 1.11 | 10.8 | 8.02 |
| LOC401218 (cyclin Q pseudogene) | 3 | 2.21 | 18.5 | 10 |
| S100A11 (S100 calcium binding protein A11) | 1 | -0.463 | -0.292 | 4.88 |
| S100A11 (S100 calcium binding protein A11) | 2 | 0.707 | 7.94 | 7.71 |
| S100A11 (S100 calcium binding protein A11) | 3 | 0.389 | 5.71 | 6.04 |
| MBOAT2 (membrane bound glycerophospholipid O-acyltransferase 2) | 1 | 0.302 | 5.09 | 8.03 |
| MBOAT2 (membrane bound glycerophospholipid O-acyltransferase 2) | 2 | -0.77 | -2.45 | 3.91 |
| MBOAT2 (membrane bound glycerophospholipid O-acyltransferase 2) | 3 | 1.12 | 10.8 | 8.58 |
